From paper PMC8415707 (Frontiers in Pharmacology, 2021)
Values after ≈ are worked out from the molar mass of the structure shown.

Tested on: Staphylococcus aureus ATCC 25923
Assay: Antimicrobial assay (MIC, two-fold dilution)
Type: cell-based
Conditions: ATCC25923, 14 h
Protocol: The antimicrobial activity of FM-CATH was measured using two-fold dilution method as reported previously by us ([Ye et al., 2020]). Microorganisms bought from Guangdong Institute of Microbiology were cultured in Muller-Hinton (MH) broth at 37°C to exponential phase and subsequently diluted with fresh MH broth to reach 10^6 CFU/ml of density. An equal volume of microbial inoculums in 96-well plates was incubated with different concentrations of FM-CATH at 37°C for 14 h. The absorbance at 600 nm was measured by a microplate spectrophotometer (Infinite M1000 Pro, Tecan Company, Switzerland) to calculate the minimal inhibitory concentration (MIC) values. […] Ampicillin and polymyxin B were used as positive controls.

CC1(C)S[C@@H]2[C@H](NC(=O)[C@H](N)c3ccccc3)C(=O)N2[C@H]1C(=O)O [Ampicillin]
MIC: 25 µM (≈ 8.74 µg/mL)
